The target in the assay is Toll-like receptor 2 (murine, in GL261 lysate) (mouse (endogenous in GL261)) (UniProt Q9QUN7). Description: co-IP; GL261 lysate at 2 mg/ml (RIPA buffer), primary Ab (anti-TLR2 clone T2.5, anti-ANXA2 clone 5) overnight at 4 °C, protein A/G agarose, immunoblot. Background: A western blot detects proteins with antibodies after separation by electrophoresis.

By UniProt entry, the sequences of proteins in these tests, tags left out. Residues count along the entry.
UniProt Q9QUN7, residues 25-784: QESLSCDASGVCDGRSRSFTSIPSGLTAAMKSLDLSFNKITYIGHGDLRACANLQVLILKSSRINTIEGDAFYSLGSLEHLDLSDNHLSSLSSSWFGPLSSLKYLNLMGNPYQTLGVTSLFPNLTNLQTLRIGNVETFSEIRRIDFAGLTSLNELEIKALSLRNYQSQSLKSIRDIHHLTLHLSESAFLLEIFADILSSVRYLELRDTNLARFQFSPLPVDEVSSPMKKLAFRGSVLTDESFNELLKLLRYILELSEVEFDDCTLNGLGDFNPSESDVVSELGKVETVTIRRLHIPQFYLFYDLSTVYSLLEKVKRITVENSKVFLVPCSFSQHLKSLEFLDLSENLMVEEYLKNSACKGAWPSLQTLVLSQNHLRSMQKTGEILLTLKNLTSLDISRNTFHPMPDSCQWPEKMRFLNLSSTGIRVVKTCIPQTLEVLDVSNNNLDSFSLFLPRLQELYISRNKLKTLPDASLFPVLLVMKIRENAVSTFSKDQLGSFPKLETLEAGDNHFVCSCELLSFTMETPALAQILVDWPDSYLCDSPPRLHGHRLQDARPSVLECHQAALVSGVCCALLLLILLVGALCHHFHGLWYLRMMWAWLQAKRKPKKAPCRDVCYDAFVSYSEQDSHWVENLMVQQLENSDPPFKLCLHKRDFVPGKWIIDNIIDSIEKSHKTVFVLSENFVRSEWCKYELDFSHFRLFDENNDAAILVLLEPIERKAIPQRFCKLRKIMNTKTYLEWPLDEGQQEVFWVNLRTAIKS
UniProt P07356: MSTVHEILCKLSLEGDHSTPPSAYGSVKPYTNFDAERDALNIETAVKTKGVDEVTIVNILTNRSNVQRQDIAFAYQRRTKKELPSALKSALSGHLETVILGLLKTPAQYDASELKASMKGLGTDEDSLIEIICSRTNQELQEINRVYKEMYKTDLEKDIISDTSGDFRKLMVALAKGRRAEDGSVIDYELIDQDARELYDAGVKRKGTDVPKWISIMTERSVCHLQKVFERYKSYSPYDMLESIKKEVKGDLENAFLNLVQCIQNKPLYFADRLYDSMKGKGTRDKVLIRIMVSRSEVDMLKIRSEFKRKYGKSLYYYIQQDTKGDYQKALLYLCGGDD

These are yes or no findings as the source states them, for the method shown. In cells and extracts the contact can be indirect. Some binding calls cover weakened binding; strength is not graded here.

As to “Annexin A2 (murine, in GL261 lysate) (from UniProt P07356 1-339)”, the binding entry is given as “binds”.

The record behind these values is paper PMC4755027.
